Experimental data published in article doi:10.1101/2023.07.25.550453 (bioRxiv, 2023).
Results are given in words; binding and its absence hold for the method and conditions named. For some of these results: Binding can be weak; no strength is given. For some of these results: Where a sequence is shown, tags or fusion partners need not be part of it.

The chains behind the UniProt entries cited, without tags or fusion partners. Where a name states a change or a piece, a line headed by the entry shows the natural chain unless it says otherwise.
UniProt Q9H814: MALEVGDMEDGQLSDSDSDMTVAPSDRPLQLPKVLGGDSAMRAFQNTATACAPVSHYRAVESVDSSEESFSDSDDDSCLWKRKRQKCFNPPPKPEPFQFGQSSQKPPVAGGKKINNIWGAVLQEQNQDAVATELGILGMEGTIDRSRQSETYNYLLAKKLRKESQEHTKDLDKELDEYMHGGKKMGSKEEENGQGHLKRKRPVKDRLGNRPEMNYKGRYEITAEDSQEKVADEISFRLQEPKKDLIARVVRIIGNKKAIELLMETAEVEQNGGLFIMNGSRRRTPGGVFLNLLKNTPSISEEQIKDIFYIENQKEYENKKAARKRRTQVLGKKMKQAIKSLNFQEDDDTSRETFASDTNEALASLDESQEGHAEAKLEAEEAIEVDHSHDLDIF

Legend:
[1] = molecular target: T1, CBP20 (NCBP2), human (human, UniProt P52298 1-156); test: cryo-EM structure
T1 sequence: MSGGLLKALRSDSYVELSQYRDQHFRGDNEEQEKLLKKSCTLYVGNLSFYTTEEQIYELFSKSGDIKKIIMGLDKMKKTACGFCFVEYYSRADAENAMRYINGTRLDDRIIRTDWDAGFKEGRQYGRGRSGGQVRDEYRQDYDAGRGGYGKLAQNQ

[2] = molecular target: T2, CBP80ΔNLS (NCBP1), human (human, UniProt Q09161 20-790); test: cryo-EM structure
T2 sequence (looked up): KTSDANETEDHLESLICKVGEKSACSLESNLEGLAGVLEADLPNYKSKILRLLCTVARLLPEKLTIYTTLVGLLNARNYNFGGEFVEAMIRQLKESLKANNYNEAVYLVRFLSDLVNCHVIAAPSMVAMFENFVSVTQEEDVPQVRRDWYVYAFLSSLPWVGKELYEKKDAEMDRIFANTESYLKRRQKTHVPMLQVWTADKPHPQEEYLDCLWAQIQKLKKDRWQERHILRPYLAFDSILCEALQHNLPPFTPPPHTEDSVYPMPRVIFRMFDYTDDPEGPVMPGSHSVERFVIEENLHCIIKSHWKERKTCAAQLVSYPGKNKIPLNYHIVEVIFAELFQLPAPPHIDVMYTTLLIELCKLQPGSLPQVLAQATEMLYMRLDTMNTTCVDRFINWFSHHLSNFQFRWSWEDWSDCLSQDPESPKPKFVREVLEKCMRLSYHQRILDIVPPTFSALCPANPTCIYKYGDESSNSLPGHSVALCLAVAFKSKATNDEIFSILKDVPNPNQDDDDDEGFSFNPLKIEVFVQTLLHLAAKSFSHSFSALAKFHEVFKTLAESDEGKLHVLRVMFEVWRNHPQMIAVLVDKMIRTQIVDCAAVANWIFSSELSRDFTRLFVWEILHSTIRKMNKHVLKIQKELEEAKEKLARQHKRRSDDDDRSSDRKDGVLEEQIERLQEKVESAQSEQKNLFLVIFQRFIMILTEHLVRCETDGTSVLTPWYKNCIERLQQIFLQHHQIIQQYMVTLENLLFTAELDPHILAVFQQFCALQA

[3] = molecular target: T3, PHAX^1-18 peptide E9R, biotinylated (human) (UniProt Q9H814); test: BLI
T3 sequence (peptide, biotin): MALEVGDMRDGQLSDSDS

[4] = molecular target: T4, MBP-ZC3H18^220-353 (human) (UniProt Q86VM9); test: pull-down
T4 sequence: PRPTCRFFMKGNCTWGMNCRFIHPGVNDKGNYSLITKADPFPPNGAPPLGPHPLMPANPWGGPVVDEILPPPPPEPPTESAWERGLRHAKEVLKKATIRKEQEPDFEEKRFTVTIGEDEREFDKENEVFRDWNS

binding [1]: binds
binding [2]: binds
binding [3]: no binding
binding [4]: binds
Substance: ARS2^147-871 (human) (domain or fragment)
